Source: PubChem BioAssay AID248 (DTP/NCI, 2004)
The list does not hold the whole screen: it gathers tests that were run many times, whatever their T/C, doses with no T/C, and many T/C values between a quarter and a half above the control. Further doses and runs are listed elsewhere. T/C: endpoint of the treated group in % of that of the vehicle group. Some entries give survivors of the animals treated and no T/C: the source files T/C as zero there, which appears to mark a toxic dose or a test without result, not a measured value. Some doses without a T/C left all or most animals alive at the check, yet need not have been tolerated: survival well below the control is almost never listed, so the zero probably covers shortened survival too. Counts of survivors are from the toxicity check (mostly the fifth day) where no day follows; animals may have died later. Schedule codes are those of the source, read here as Q, the interval in days (D) or hours (H), X, the number of doses. Counts like (3×) stand for listed records that agree. Some entries hold several experiments; the results are listed from low to high. Some schedules carry Z or #; the key to these is not given. Where survival is the endpoint, this PubChem deposit counts one and a half times the control or more as active, and values a quarter to a half above the control carry no call in these data; other NCI protocols may use other cut-offs.

Test system: L1210 leukemia ip in BDF1 mice, survival T/C
Experiment: NCI In Vivo Anticancer Drug Screen. Data for tumor model L1210 Leukemia (intraperitoneal) in B6D2F1 (BDF1) mice
Conditions: T/C endpoint: mean survival time, higher T/C = longer survival
[1] = dose: 22.0 mg/kg/injection, schedule: Q01DX001 (ip), vehicle: saline
[2] = dose: 400.0 mg/kg/injection, schedule: Q01DX001 (ip), vehicle: saline

C[CH2][Pb]([CH2]C)([CH2]C)[N](C#N)C(=N)N
survivor count (dose: 100.0 mg/kg/injection, schedule: Q04DX002 (ip), vehicle: Klucel (hydroxypropylcellulose) (HPC)): 1 of 3 and 2 of 3 | survivor count (dose: 200.0 mg/kg/injection, schedule: Q04DX002 (ip), vehicle: Klucel (hydroxypropylcellulose) (HPC)): 0 of 3 | survivor count (dose: 400.0 mg/kg/injection, schedule: Q04DX002 (ip), vehicle: Klucel (hydroxypropylcellulose) (HPC)): 0 of 3

CC1CN1CC(O)C(O)CN1CC1C (stereo not given)
T/C (dose: 0.14 mg/kg/injection, schedule: Q01DX015 (ip), vehicle: saline): 130 % of control | T/C (dose: 0.17 mg/kg/injection, schedule: Q01DX009 (ip), vehicle: saline): 128 and 140 % of control | T/C (dose: 0.22 mg/kg/injection, schedule: Q01DX015 (ip), vehicle: saline): 147 % of control | T/C (dose: 0.26 mg/kg/injection, schedule: Q01DX009 (ip), vehicle: saline): 133 % of control | T/C (dose: 0.4 mg/kg/injection, schedule: Q01DX009 (ip), vehicle: saline): 142 % of control | T/C (dose: 0.4 mg/kg/injection, schedule: Q04DX003 (ip), vehicle: saline): 130 % of control | T/C (dose: 0.46 mg/kg/injection, schedule: Q01DX Z (ip), vehicle: saline): 132 % of control | T/C (dose: 0.5 mg/kg/injection, schedule: Q01DX015 (ip), vehicle: saline): 133 and 139 % of control | T/C (dose: 0.6 mg/kg/injection, schedule: Q01DX015 (ip), vehicle: saline): 130 % of control | T/C (dose: 0.71 mg/kg/injection, schedule: Q01DX001 (ip), vehicle: saline): 130 % of control | T/C (dose: 1.0 mg/kg/injection, schedule: Q01DX001 (ip), vehicle: saline): 130 % of control | T/C (dose: 1.0 mg/kg/injection, schedule: Q01DX015 (ip), vehicle: saline): 148 and 149 % of control | T/C (dose: 1.6 mg/kg/injection, schedule: Q01DX001 (ip), vehicle: saline): 145 % of control | T/C (dose: 2.0 mg/kg/injection, schedule: Q01DX001 (ip), vehicle: saline): 133 % of control | T/C (dose: 2.5 mg/kg/injection, schedule: Q01DX001 (ip), vehicle: carboxymethylcellulose (CMC)): 141 % of control | T/C (dose: 2.5 mg/kg/injection, schedule: Q01DX001 (ip), vehicle: saline): 142 % of control | T/C (dose: 2.75 mg/kg/injection, schedule: Q01DX001 (ip), vehicle: saline): 139 % of control | T/C (dose: 3.0 mg/kg/injection, schedule: Q01DX001 (ip), vehicle: saline): 144 % of control | survivor count (dose: 3.0 mg/kg/injection, schedule: Q01DX015 (ip), vehicle: saline): 5 of 6 (2×) | T/C (dose: 3.3 mg/kg/injection, schedule: Q04DX003 (ip), vehicle: saline): 139 % of control | T/C (dose: 4.0 mg/kg/injection, schedule: Q01DX015 (ip), vehicle: saline): 148 % of control | T/C (dose: 5.0 mg/kg/injection, schedule: Q04DX003 (ip), vehicle: saline): 147 % of control | T/C (dose: 6.0 mg/kg/injection, schedule: Q01DX015 (ip), vehicle: saline): 142 % of control | T/C (dose: 10.0 mg/kg/injection, schedule: Q04DX003 (ip), vehicle: saline): 140 % of control | survivor count (dose: 12.0 mg/kg/injection, schedule: Q01DX015 (ip), vehicle: saline): 5 of 6 and 6 of 6 | survivor count (dose: 18.0 mg/kg/injection, schedule: Q01DX015 (ip), vehicle: saline): 0 of 6 | T/C (dose: 20.0 mg/kg/injection, schedule: Q01DX001 (ip), vehicle: carboxymethylcellulose (CMC)): 127 % of control | survivor count (dose: 20.0 mg/kg/injection, schedule: Q01DX001 (ip), vehicle: saline): 2 of 6 | survivor count (dose: 20.0 mg/kg/injection, schedule: Q04DX003 (ip), vehicle: saline): 6 of 6 | T/C [1]: 100 % of control | survivor count [1]: 0 of 4, 1 of 4, 2 of 4 | survivor count (dose: 27.0 mg/kg/injection, schedule: Q01DX015 (ip), vehicle: saline): 0 of 6 | survivor count (dose: 30.0 mg/kg/injection, schedule: Q01DX001 (ip), vehicle: saline): 0 of 6 | survivor count (dose: 33.0 mg/kg/injection, schedule: Q01DX001 (ip), vehicle: saline): 0 of 4 and 1 of 4 | survivor count (dose: 44.0 mg/kg/injection, schedule: Q01DX001 (ip), vehicle: saline): 0 of 4 | survivor count (dose: 45.0 mg/kg/injection, schedule: Q01DX001 (ip), vehicle: saline): 0 of 6 | T/C (dose: 50.0 mg/kg/injection, schedule: Q01DX001 (ip), vehicle: carboxymethylcellulose (CMC)): 141 % of control | survivor count (dose: 50.0 mg/kg/injection, schedule: Q01DX001 (ip), vehicle: saline): 0 of 4 (2×) | survivor count (dose: 60.0 mg/kg/injection, schedule: Q01DX001 (ip), vehicle: saline): 0 of 6 | survivor count (dose: 65.0 mg/kg/injection, schedule: Q01DX001 (ip), vehicle: saline): 0 of 6 | survivor count (dose: 75.0 mg/kg/injection, schedule: Q01DX001 (ip), vehicle: saline): 0 of 4 | survivor count (dose: 100.0 mg/kg/injection, schedule: Q01DX001 (ip), vehicle: carboxymethylcellulose (CMC)): 0 of 4 | survivor count (dose: 100.0 mg/kg/injection, schedule: Q01DX001 (ip), vehicle: saline): 0 of 4 | survivor count (dose: 120.0 mg/kg/injection, schedule: Q01DX001 (ip), vehicle: saline): 0 of 6 | survivor count (dose: 200.0 mg/kg/injection, schedule: Q01DX001 (ip), vehicle: carboxymethylcellulose (CMC)): 0 of 4 | survivor count (dose: 200.0 mg/kg/injection, schedule: Q01DX001 (ip), vehicle: saline): 0 of 4 | survivor count (dose: 400.0 mg/kg/injection, schedule: Q01DX001 (ip), vehicle: carboxymethylcellulose (CMC)): 0 of 4 | T/C (dose: 93.0 micrograms/kg/injection, schedule: Q01DX015 (ip), vehicle: saline): 125 % of control | T/C (dose: 140.0 micrograms/kg/injection, schedule: Q01DX015 (ip), vehicle: saline): 138 % of control | T/C (dose: 315.0 micrograms/kg/injection, schedule: Q01DX001 (ip), vehicle: saline): 132 % of control | T/C (dose: 473.0 micrograms/kg/injection, schedule: Q01DX001 (ip), vehicle: saline): 135 % of control

CSc1nc(Cl)cc(-c2ccccc2)n1
survivor count (dose: 100.0 mg/kg/injection, schedule: Q01DX Z (ip), vehicle: methylcellulose (MC)): 6 of 6

CSCC1OC(n2nnc3c(N)ncnc32)C(O)C1O (stereo not given)
survivor count (dose: 400.0 mg/kg/injection, schedule: Q01DX001 (ip), vehicle: Klucel (hydroxypropylcellulose) (HPC)): 3 of 6

C#CCCCCCCC#CCCCCCCC#C
survivor count (dose: 400.0 mg/kg/injection, schedule: Q04DX003 (ip), vehicle: acetone): 1 of 6

CC(C)(C)c1ccc(C(=O)C2CC2)cc1
survivor count (dose: 200.0 mg/kg/injection, schedule: Q01DX009 (ip), vehicle: saline with Tween-80): 0 of 6

CCC(C)C(C)C(C)=O (stereo not given)
survivor count [2]: 2 of 4

CNC(=S)N/N=C/c1cnccn1
survivor count [2]: 1 of 4

O=[N+]([O-])c1ccccc1N=P(c1ccccc1)(c1ccccc1)c1ccccc1
survivor count (dose: 200.0 mg/kg/injection, schedule: Q01DX009 (ip), vehicle: DMSO): 2 of 6 | survivor count (dose: 400.0 mg/kg/injection, schedule: Q04DX003 (ip), vehicle: DMSO): 1 of 6

c1cc[c]([GeH]([c]2ccccc2)[c]2ccccc2)cc1
survivor count (dose: 25.6 mg/kg/injection, schedule: Q04DX002 (ip), vehicle: saline with Tween-80): 3 of 3

N=C1c2ccccc2-c2ccccc21
survivor count (dose: 400.0 mg/kg/injection, schedule: Q04DX003 (ip), vehicle: saline with Tween-80): 0 of 6

CCOC(=O)/C(C#N)=C(/C)C1CC1
survivor count (dose: 50.0 mg/kg/injection, schedule: Q01DX009 (ip), vehicle: Klucel (hydroxypropylcellulose) (HPC)): 1 of 6 | survivor count (dose: 100.0 mg/kg/injection, schedule: Q01DX009 (ip), vehicle: Klucel (hydroxypropylcellulose) (HPC)): 0 of 6 | survivor count (dose: 200.0 mg/kg/injection, schedule: Q01DX009 (ip), vehicle: Klucel (hydroxypropylcellulose) (HPC)): 0 of 6 | survivor count (dose: 300.0 mg/kg/injection, schedule: Q01DX001 (ip), vehicle: carboxymethylcellulose (CMC)): 0 of 6

Cc1ccc(S/C(=C/c2ccccc2)C(N)=O)cc1
survivor count (dose: 100.0 mg/kg/injection, schedule: Q04DX003 (ip), vehicle: Klucel (hydroxypropylcellulose) (HPC)): 6 of 6

CCN(CC)CCCC(C)NC(=O)c1ccc(Cl)nc1 (stereo not given)
survivor count (dose: 400.0 mg/kg/injection, schedule: Q01DX009 (ip), vehicle: saline with Tween-80): 1 of 6
